In all, about 360,000 compounds went through this assay and about 7,500 (2.1%) were called active. This list was built around the results that the source calls inconclusive (neither active nor inactive); the mix of calls is not that of the screen. Calls come from the whole dose curve; as a rule, active = well fitted inhibition curve with a large enough effect; inconclusive = small, poorly fitted or top-dose-only effect, or effect the other way; inactive = flat fitted curve, though single readings scatter. Potencies of inconclusive entries are doubtful fits and often do not repeat.
Assay: Nrf2 qHTS screen for inhibitors; note: nearly all actives have a fitted effect of over 60% in size
Details: A549 ARE-Fluc reporter, luciferase luminescence, 18-24 h; activity change, negative = inhibition: at 46 µM (top of the series)
Outline: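 Reporter: ARE-Fluc in A549. Exposure: 18-24 h, 37 °C, 5% CO2, 5% FBS OPTI-MEM. Readouts: fluorescent cytotoxicity (CellTiter-Fluor), then luminescent Nrf2 signal after BugLite.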
% is set by controls: 0 for no effect and ±100 for the full control effect; potency is the fitted concentration of half-maximal effect.

Row | Compound | Potency | activity change, negative = inhibition
1 | COc1ccc(NC(=O)CCCNC(=O)c2ccc(Cl)cc2)cc1S(=O)(=O)N1CCOCC1 | inconclusive: 11.6 µM [falling, partial curve] | –
2 | O=C(CCl)Nc1ccccc1C(=O)Nc1ccc2c(c1)OCO2 | inconclusive: 2.06 µM [activator, full curve] | –
3 | O=C(NCC(c1cccs1)N1CCOCC1)c1cn(-c2ccccc2)nc1-c1ccc(Cl)cc1 (centres undefined) | inconclusive: 0.731 µM [activator, partial curve] | –
4 | CCOC(=O)c1c(C)c(C(=O)N2CCc3ccccc3C2)c(C)n1CC | inconclusive: 29.1 µM [falling, single point] | –
5 | O=C(CCl)N1CCN(C(=O)C2COc3ccccc3O2)CC1 (centres undefined) | inconclusive: 25.9 µM [activator, single point] | –
6 | Cc1ccc(NC(=O)c2cc(-c3ccc4c(c3)OCO4)on2)cc1 | inactive | –
7 | CC1=C(C)/C(=N\OS(=O)(=O)c2ccccc2)C=CC1=O | inconclusive: 3.98 µM [falling, partial curve, poor fit] | –
8 | COc1cc(NC(=S)NC(=O)c2c(OC)cccc2OC)ccc1NC(=O)c1cccs1 | inconclusive: 14.6 µM [falling, partial curve, poor fit] | –
9 | Cc1cc(C)c2nc(SCC(=O)Nc3cc(C)on3)c(C#N)cc2c1 | inconclusive: 13 µM [falling, partial curve, poor fit] | –
10 | Cc1onc(-c2ccccc2)c1C(=O)c1c[nH]c(C(=O)NCc2ccncc2)c1 | – | inactive: -0.915%
11 | COCCCNC(=O)CN1C(=O)c2c(c3ccccc3n2C)C1c1ccc(OC)cc1 (centres undefined) | – | inactive: -3.83%
12 | CC(C)(C)c1ccc(C(=O)N2CCN(CCNC(=O)C(=O)Nc3ccc(F)cc3)CC2)cc1 | inconclusive: 29.1 µM [falling, single point] | –
13 | Cc1ccc(S(=O)(=O)Nc2ccc3c4c(cccc24)CC3)c(C)c1 | inconclusive: 7.31 µM [falling, partial curve, poor fit] | –
14 | Cc1cccc(-n2ncc3c(N(CCO)CCO)ncnc32)c1 | inconclusive: 2.06 µM [activator, partial curve, poor fit] | –
15 | COc1ccccc1CNC(=O)c1c2c(nc3ccccc13)C(=O)N(C1CCCCC1)C2 | inconclusive: 29.1 µM [activator, single point] | –
16 | O=C(c1cc(-c2ccccc2)nc2ccccc12)N1CCN(c2ccccc2O)CC1 | inconclusive: 29.1 µM [falling, single point] | –
17 | CN1/C(=C\C(=O)CSc2cccc[n+]2[O-])C(C)(C)c2ccccc21 | inconclusive: 23.1 µM [falling, partial curve, poor fit] | –
18 | COc1ccc(CNCc2cc3c(C(C)(C)C)nn(-c4ccccc4)c3[nH]c2=O)cc1 | active: 18.4 µM | –
19 | Cc1cc(C(=O)Cn2nc(C(=O)O)c3ccccc3c2=O)c(C)n1CCc1ccc(Cl)cc1 | inconclusive: 32.6 µM [falling, single point] | –
20 | COC(=O)c1sccc1NC(=S)N1CCN(c2ccccc2F)CC1 | inconclusive: 29.1 µM [falling, single point] | –
21 | O=C(COc1ccc([N+](=O)[O-])cc1)N(Cc1ccccc1)Cc1ccccc1 | – | inactive: -0.323%
22 | CCN1C(=O)[C@H]2[C@@H](c3ccc(-c4ccc(C(C)=O)cc4)cc3)N3CCCC[C@@]3(C(=O)OC)[C@H]2C1=O | inconclusive: 20.6 µM [falling, single point] | –

An excerpt of these results, comma-delimited:
Row,Compound,Potency,"activity change, negative = inhibition"
8,COc1cc(NC(=S)NC(=O)c2c(OC)cccc2OC)ccc1NC(=O)c1cccs1,"inconclusive: 14.6 µM [falling, partial curve, poor fit]",–
13,Cc1ccc(S(=O)(=O)Nc2ccc3c4c(cccc24)CC3)c(C)c1,"inconclusive: 7.31 µM [falling, partial curve, poor fit]",–

Additional compounds:

Row | Compound | Potency | activity change, negative = inhibition
23 | C=CCn1c(=O)[nH]c2cc(C(=O)N3CCN(c4cccc(Cl)c4)CC3)ccc2c1=O | inconclusive: 20.6 µM [falling, single point] | –
24 | COc1ccccc1N1CCN(C(=O)CSc2nc3ccccc3c(=O)n2CC2CCCO2)CC1 (centres undefined) | inconclusive: 29.1 µM [falling, partial curve, poor fit] | –
25 | COC(=O)CSc1nc2ccc(NC(=O)CSc3nnnn3Cc3ccccc3)cc2s1 | inconclusive: 29.1 µM [falling, single point] | –
26 | COc1ccc(-c2csc(N(CCCN3CCOCC3)C(=O)c3ccco3)n2)cc1 | inconclusive: 16.4 µM [falling, single point] | –
27 | CCc1cc2c3c([nH]c2cc1S(=O)(=O)N1CCC2(CC1)OCCO2)CCCC3=O | inconclusive: 18.4 µM [falling, partial curve, poor fit] | –
28 | O=C(NC(=S)Nc1ccccc1O)c1ccccc1Cl | inconclusive: 16.4 µM [activator, partial curve] | –
29 | COc1ccc(/C=C2\CCC/C(=C\c3ccc(OC)c(OC)c3OC)C2=O)c(OC)c1OC | active: 8.2 µM | –
30 | CCOCCn1c(=O)c2c(nc3n2CC(C)CN3Cc2ccccc2)n(C)c1=O (centres undefined) | inconclusive: 2.31 µM [activator, partial curve, poor fit] | –
31 | COc1cccc(NC(=O)c2cc(CN3CCOCC3)on2)c1 | inconclusive: 6.51 µM [activator, partial curve] | –
32 | CN(C(=O)CS(=O)(=O)c1cn(CC(=O)N2CCCCC2)c2ccccc12)c1ccccc1 | – | inactive: 0.263%
33 | COc1ccc(C(=O)C(CN2CCCC2)c2ccccc2)cc1 (centres undefined) | – | inactive: -12.6%
34 | CCCn1c(SCC(=O)N(C)C2CCS(=O)(=O)C2)nc2sc3c(c2c1=O)CCC3 (centres undefined) | – | inactive: 0.359%
35 | COc1cccc(NC(=S)Nc2cc(C)cc(C)n2)c1 | inconclusive: 3.26 µM [activator, full curve] | –
36 | Cn1c(COc2ccc(Cl)cc2)nnc1SCC(=O)NC1CCCC1 | inconclusive: 25.9 µM [activator, single point] | –
37 | CN(C)S(=O)(=O)c1cccc(NC(=O)CSc2ncnc3ccccc23)c1 | inconclusive: 29.1 µM [falling, single point] | –
38 | CCSc1nnc(NC(=O)C(C)(C(F)(F)F)C(F)(F)F)s1 | active: 16.4 µM | –
39 | CCOC(=O)[C@H]1O[C@@H]1C(=O)N[C@@H](CC(C)C)C(=O)NCCC(C)C | – | inactive: 9.81%
40 | Cc1sc2ncnc(N3CCC(C(=O)Nc4ccc(F)cc4Cl)CC3)c2c1C | inconclusive: 25.9 µM [falling, single point] | –
41 | COc1cccc2[nH]c3c(N4CCc5ccccc5C4)ncnc3c12 | inconclusive: 16.4 µM [falling, single point] | –
42 | COc1ccc(-n2c(C)c([N+](=O)[O-])c3ccc(O)c(CN(C)C)c32)cc1 | inconclusive: 9.2 µM [falling, partial curve, poor fit] | –
43 | O=C(/C=C\c1ccco1)Oc1cccc2cccnc12 | – | inactive: 2.51%
44 | Cc1cccc(NS(=O)(=O)c2ccc(C(=O)N3CCCCCC3)cc2)c1C | inconclusive: 16.4 µM [falling, single point] | –

Row | Compound | Potency | activity change, negative = inhibition
45 | Cc1csc(NC(=O)c2cnc3ccccc3n2)n1 | inconclusive: 8.2 µM [activator, partial curve] | –
46 | COc1cccc(-c2sc3ccc(OC)cc3c2C#CC2(O)CCCCC2)c1 | – | inactive: 12.1%
47 | CN(CC(=O)Nc1cccc(F)c1)C(=O)c1cn(-c2ccccc2)nc1-c1ccc(Cl)cc1 | inconclusive: 32.6 µM [falling, single point] | –
48 | CCOC(=O)c1cc(-c2ccccc2)sc1N | inconclusive: 14.6 µM [activator, single point] | –
49 | CCn1cc(C(=O)OCC(=O)c2cc(C)n(-c3cccc(C(F)(F)F)c3)c2C)c(=O)c2ccc(C)nc21 | inconclusive: 29.1 µM [falling, single point] | –
50 | O=C(O)c1ccc(CNS(=O)(=O)c2ccc(Oc3ccccc3Cl)cc2)cc1 | inconclusive: 23.1 µM [falling, partial curve, poor fit] | –
51 | COc1cc(OC)cc(-c2cc3nc(C)c(CCC(=O)O)c(C)n3n2)c1 | active: 1.46 µM | –
52 | Cc1cc(C)c(NS(=O)(=O)c2ccc(NC(=O)c3cccs3)cc2)c(C)c1 | inconclusive: 29.1 µM [falling, single point] | –
53 | O=c1c2c(nc3n1CCCCC3)sc1c(O)cccc12 | inconclusive: 29.1 µM [activator, partial curve, poor fit] | –
54 | CCN(CC(=O)NC1CCS(=O)(=O)C1)c1ccc(S(C)(=O)=O)cc1[N+](=O)[O-] (centres undefined) | inconclusive: 20.6 µM [activator, partial curve] | –
55 | COc1ccc(-c2cnc(SCC(=O)Nc3ccc4c(c3)OCO4)n2Cc2ccco2)cc1 | inconclusive: 18.4 µM [falling, single point] | –
56 | Cc1cccc(N2C(=O)CC(SC(=Nc3ccccc3)Nc3ccccc3)C2=O)c1 (centres undefined) | inconclusive: 23.1 µM [falling, single point] | –
57 | Cc1ccc(-c2nc(N/N=C/c3cccc([N+](=O)[O-])c3)c3ccccc3n2)cc1 | inconclusive: 18.4 µM [activator, partial curve, poor fit] | –
58 | Clc1ccc(-c2nnc(-c3ccc4ccccc4c3)o2)cc1 | inconclusive: 9.2 µM [activator, partial curve] | –
59 | c1csc(-c2nc(N3CCCCC3)no2)c1 | inconclusive: 18.4 µM [activator, partial curve] | –
60 | C/C(=N\Nc1cc(N2CCCCC2)nc(C)n1)c1ccc(Br)cc1 | inconclusive: 29.1 µM [falling, single point] | –
61 | CCOC(=O)Cc1csc(NC(=S)NC(=O)c2ccccc2)n1 | – | inactive: 0.158%
62 | CCOC(=O)c1[nH]cnc1C(=O)Nc1cccc(Cl)c1 | inconclusive: 29.1 µM [activator, partial curve, poor fit] | –
63 | OCCCCNCc1ccc(OCc2ccc(Cl)cc2)cc1 | inconclusive: 29.1 µM [activator, single point] | –
64 | Cc1cc(C)cc(OCCn2nnc3ccccc32)c1 | inconclusive: 16.4 µM [activator, single point] | –
